Reference: publication PMC5818066
Results are given in words; binding and its absence hold for the method and conditions named. Some results given as binding are weak or reduced against the parent protein; the word gives no strength.

Target: NUD-2 (C. elegans NudE/L homolog) (C. elegans) (UniProt O45717)
Assay: two-hybrid; yeast two-hybrid (Matchmaker); bait in pGBKT7, prey in pGADT7; growth on -Leu/-Trp/-His plates selects for the interaction

B1: NUD-2 (C. elegans NudE/L homolog) (protein, UniProt O45717 1-293)
chain: MDLSEDQIRGLPHHELLGHFLQMREEFNEFQTSSAEIEKMMDSELDDLKTQLKKAETRVQQMTTEQIRNKDRQDDSRVQFAQVEEQLRRENSHLHEQCESQRERIRKLEQRNDVLETSERNKEYLASDLGSKLDHAIEKIAMLESELYERQVAAEEMHRLREEQLRTTERPRLIVEPLRNDPEILPDEPSPGPSKEEFKMSSEDVFMEDVQHHEDVRMEETIAKIDEVRIDDNKNIQEKSQRVSTGTGAGACINRIVKDLMTKVERLDSILSTIRVSNNSSNNNSSHLTTTRA
In the case of B1, the binding is reported as “binds”.
